Assay results reported in patent publication US20020049151A1, “Therapeutic approaches to diseases by suppression of the NURR subfamily of nuclear transcription factors” (priority 2000, published 2002).
At least one structure is not confirmed: it was looked up by name or label, or the drawing left a doubt.

Tests used:
[1] = system: NURR1 mRNA; test: Northern blot of NURR1 mRNA in primary synoviocytes; assay type: cell-based, human
Method: (§1) Regulation of gene expression by the protein kinase A and C pathways represent important signaling events in RA synoviocytes (Ben-Av et al., 1995; Crofford et al., 1994; Firestein and Manning, 1999). […] To investigate the involvement of the protein kinase C signaling pathways in NURR regulation, synoviocytes were treated with phorbal myristic acetate (PMA). […] In contrast, dexamethasone had little effect on forskolin- or PMA-induced NUR77 levels.
In FIG. 4 total RNA was extracted and northern blot analysis was performed. Filters were hybridized with a cDNA for NURR1 or NUR77 and also with GAPDH to control for loading and transfer. Synovial explants were left untreated [C] or incubated with 10^−8M CRH for the indicated times. (FIG. 4A) Confluent monolayers of primary synoviocytes were left untreated [C] or pretreated with 10^−8M dexamethasone (DEX) for 2 h prior to the addition of 25μM forskolin (FOR) or 20 ng/ml of phorbal myristic acetate (PMA). (FIG. 4B)
Therefore the pathological importance of the NURR transcription factors in inflammatory joint disease was further examined by determining the ability of pro-inflammatory agonists to regulate NURR transcript levels in primary synoviocytes and synovium explant tissue (FIG. 6).
For FIG. 6 each membrane was reprobed with a GAPDH cDNA to control for loading and transfer. NURR1 mRNA levels were measured by northern analysis using total RNA extracted from synoviocytes left untreated [C] or cultured for the time indicated with (A) TNFα (10 ng/ml) in the presence or absence of pre-treatment with 10^−8M dexamethasone (DEX). (B) IL-1β(10 ng/ml) in the presence or absence of pretreatment with 2 μM indomethacin (INDO) or 10^−8M DEX. (C) or synovial explants cultured with IL-6 (10 ng/ml). (D) 1 μM PGE2. (E) 25 μM forskolin (FOR) or […] for 1h in the absence or presence of 5 µg/ml cycloheximide (CHX).
Northern analysis of primary RA synoviocytes were untreated (lane 1) or treated for 1 hour with TNFα (lane 2), IL-1β (lane 3), and PGE2 (lane 4). TNFα and IL-1β were used at a concentration of 10 ng/mL and PGE2 was at a concentration of 10^-6 M.
Total RNA was isolated from cultured primary synoviocytes or synovial explants. RNA was quantitated by UV absorption and 10 μg of total RNA were electrophoresed on a standard northern gel and transferred to nylon membrane (BioRad, Richmond, Calif.). NURR1 and NUR77 cDNA probes (Murphy and Conneely, 1997), spanning the amino terminal region to avoid cross-hybridization, were radiolabeled to a high specific activity using [α-^32P] dCTP and a random primer labeling system (Promega, Madison, Wis.). Blots were exposed to film at −80° C. using intensifying screens and autoradiographic intensity was quantitated using an imaging densitometer.

[2] = system: peripheral CRH; conditions: animal models of induced arthritis; cited from earlier work
[3] = system: synoviocytes; test: Synoviocyte morphological transformation (fibroblast-like to stellate); assay type: cell-based, human
[4] = system: NURR1 mRNA; test: Northern blot of NURR1 mRNA in synovium explants; assay type: cell-based, human; conditions: dexamethasone 10^−8M
Method: To determine whether the NURR subfamily contribute to CRH signaling in a pathological context, freshly excised RA (FIG. 4A) and PsA synovium explants were incubated with CRH (10^−8 M) and examined for its ability to induce expression of NURR1 and NUR77 transcripts. […] Furthermore, analysis of synovium explants indicates higher endogenous and CRH-inducible NURR1 mRNA compared to NUR77 transcript levels.
(§2) In FIG. 4 total RNA was extracted and northern blot analysis was performed. Filters were hybridized with a cDNA for NURR1 or NUR77 and also with GAPDH to control for loading and transfer. Synovial explants were left untreated [C] or incubated with 10^−8M CRH for the indicated times. […]
For FIG. 6 each membrane was reprobed with a GAPDH cDNA to control for loading and transfer. NURR1 mRNA levels were measured by northern analysis using total RNA extracted from synoviocytes left untreated [C] or cultured for the time indicated with (A) TNFα (10 ng/ml) in the presence or absence of pre-treatment with 10^−8M dexamethasone (DEX). […]
Total RNA was isolated from cultured primary synoviocytes or synovial explants. RNA was quantitated by UV absorption and 10 μg of total RNA were electrophoresed on a standard northern gel and transferred to nylon membrane (BioRad, Richmond, Calif.). […]

[5] = system: NUR77 mRNA; test: Northern blot of NUR77 mRNA in primary synoviocytes; assay type: cell-based, human
Method: as §1, §2
Dexamethasone (10^−8M) inhibited the TNFα, IL-1β (FIGS. 6A and B) and PGE2-stimulated NURR1 MRNA in synoviocytes and CRH-induced NURR1 expression in synovium explants. […] For each northern blot shown in FIG. 6, NUR77 mRNA levels were also analyzed. […]
Total RNA was isolated from cultured primary synoviocytes or synovial explants. RNA was quantitated by UV absorption and 10 μg of total RNA were electrophoresed on a standard northern gel and transferred to nylon membrane (BioRad, Richmond, Calif.). […] Blots were exposed to film at −80° C. using intensifying screens and autoradiographic intensity was quantitated using an imaging densitometer.

[6] = system: CRH mRNA; test: RT-PCR of CRH mRNA in primary human synoviocytes; assay type: cell-based; conditions: 25 μM forskolin
Text: To identify the origin of the cells that express CRH, the expression of CRH mRNA in isolated primary human synoviocyte cells was investigated. Synoviocytes are an important source and target cell for IL-1β, TNFα and PGE2 action within inflamed synovial tissue (Bucala et al., 1991). Moreover, these pro-inflammatory agents are important mediators in the pathogenesis of human synovial hyperplasia and cartilage destruction (MacNaul et aL., 1990). […] Representative examples of PCR products generated using synoviocytes maintained under normal conditions (Con), or exposed to 10 ng/ml IL-1β, IL-6, TNF, 1 μM PGE2, MoCM or 25 μM forskolin (FOR) for 6 h. Results were obtained from three separate experiments, using both RA and PsA cell lines. Values shown are the mean +/−SE. The symbol * indicates P<0.01 compared to control. PCR products generated were confirmed by Southern blot analysis using CDNA probes for human CRH and GAPDH.
The regulation of hypothalamic CRH gene expression by activation of adenylate cyclase/protein kinase A signaling pathway has previously been established (Guardiola-diaz et al., 1994). The ability of forskolin (FOR), an adenylate cyclase activating agent, was tested for stimulatory effects on CRH gene expression in primary synoviocytes. […] To determine regulatory signals of peripheral CRH expression the ability of pro-inflammatory agonists to regulate endogenous CRH MRNA was examined. […] Next, a comparison of the ability of individual pro-inflammatory mediators to induce CRH mRNA was performed. […] Levels of GAPDH mRNA remained relatively constant under all conditions tested (FIG. 1D).
Synovial tissue was treated for 4 h with 1 mg/ml collagenase (type I; Worthington Biochemical, Freehold, N.J.) in RPMI at 37° C. in 5% CO2. […] Chloramphenicol acetyl transferase (CAT) levels were measured using a CAT ELISA (Boehringer Mannheim, Germany). Protein concentrations were determined by the Bradford assay (BioRad, Richmond, Calif.). […]

[7] = system: CRH NBRE; test: EMSA of synoviocyte nuclear extracts with CRH NBRE; assay type: cell-based, human; conditions: synoviocytes stimulated 1 h; 25 μM forskolin, 10 ng/ml TNFα, IL-1β or PGE2
Method: To analyze the effects of cytokines on the ability of NURR1 to bind DNA, EMSA was performed to examine the binding properties of NURR1 to the consensus sequence (NBRE) in the human CRH promoter. […] Binding of the larger protein complex, and to a lesser extent the smaller complex, was inhibited by 50× molar excess of unlabeled homologous oligonucleotide.
Nuclear extracts from untreated, 25 μM forskolin (FOR) or lOng/ml TNFα treated synoviocytes (1 h) were compared for increased binding to the α^32 P-labeled CRH NBRE. DNA-protein interactions were assayed in the presence of 50× molar excess of homologous oligonucleotide or NURR1 specific antiserum (NURR1 Ab).
Nuclear protein extracts were prepared as previously described (Murphy and Conneely, 1997). For the EMSAs, 1 μg of nuclear extract was incubated for 20 mins in the presence of 20 mM Hepes (pH 7.9), 5 mM MgCl2, 20% glycerol, 100 mM KCL, 0.2 mM EDTA, 8% Ficoll, […], 500 ng/μl poly (deoxyinosinicdeoxycytidylic) acid, 50 mM dithiothreitol (DTT) and [α-^32P]-dCTP labeled doublestranded oligonucleotide. For supershifts experiments, antibodies to NURR1 (Santa Cruz Biotechnology, Santa Cruz, Calif.) were added following the initial 20-minute incubation, then incubated for an additional 20 minutes. The samples were electrophoresed through a 5.5% non-denaturing polyacrylamide gel in 0.5× TrisBorate-EDTA (TBE) buffer. […]

Row | SMILES | effect on forskolin-induced NURR1 expression ([1]; primary synoviocytes, 25 μM forskolin, dexamethasone 10^−8M pre-treatment 2 h, cycloheximide 5 µg/ml) | effect on IL-1β-induced NURR1 mRNA ([1]; primary synoviocytes, IL-1β 10 ng/ml, dexamethasone 10^−8M, indomethacin 2 μM) | effect on TNFα-stimulated NURR1 mRNA ([1]; primary synoviocytes, TNFα 10 ng/ml, dexamethasone 10^−8M) | effect on PGE2-stimulated NURR1 mRNA ([1]; primary synoviocytes, dexamethasone 10^−8M, cycloheximide 5 µg/ml, 1M PGE2 for 1h) | effect on cytokine-induced NURR1 induction/expression ([1]; synoviocytes) | immunoreactive levels of increased peripheral CRH [2] | effect on cytokine-stimulated morphological transformation [3] | effect on CRH-induced NURR1 expression [4] | effect on forskolin- or PMA-induced NUR77 levels ([5]; dexamethasone 10^−8M) | NURR1 mRNA levels after stimulation ([1]; primary synoviocytes, 25 μM forskolin, 20 ng/ml PMA, 10 ng/ml TNFα, IL-1β, IL-6, 1 μM PGE2, CRH) | earliest time of CRH mRNA induction post stimulation [6] [h] | endogenous CRH mRNA levels [6] | time of peak CRH mRNA levels [6] [h] | NUR77 mRNA levels after stimulation ([5]; 25 μM forskolin, 20 ng/ml PMA, CRH) | binding of nuclear protein complexes with the CRH NBRE [7]
1 | C[C@@H]1C[C@H]2[C@@H]3CCC4=CC(=O)C=C[C@]4(C)[C@@]3(F)[C@@H](O)C[C@]2(C)[C@@]1(O)C(=O)CO [dexamethasone] | dramatically suppressed | inhibited | inhibited | inhibited | inhibits | significantly reduced | inhibits | inhibited | little effect | – | – | – | – | – | –
2 | C=C[C@@]1(C)CC(=O)[C@]2(O)[C@@]3(C)[C@@H](O)CCC(C)(C)[C@@H]3[C@H](O)[C@H](OC(C)=O)[C@@]2(C)O1 [forskolin] | – | – | – | – | – | – | – | – | – | rapid increase | 2 | induced endogenous CRH mRNA levels | 6 | rapid increase | significant increased binding
